Values joined by “and” are separate entries in the source; they are usually repeats but may differ in a detail not shown here. Identical values can stand only once. The whole screen tested about 300,000 compounds, of which about 5,400 (1.8%) were called active. Inconclusive means that the source gave no clear call. Such entries were picked first, then a sample of the others. Calls come from the whole dose curve; tested in HEK293 cells. Where the call is inconclusive, the potency comes from a doubtful curve fit.
assay: qHTS for inhibitors of binding or entry into cells for Marburg Virus; settings: Marburg virus pseudotyped entry inhibition, cell reporter; series mostly up to 37.8 µM
Potency is the fitted concentration of half-maximal effect.

| SMILES | Potency |
| --- | --- |
| CNC(=O)Nc1ccc(C2SCCS2)cc1 | inactive |
| CCOc1ccccc1NC(=O)c1nn(C)c2c1CSc1ccccc1-2 | inconclusive: 6.31 µM [inhibitor, single point] |
| CCCCOc1ccc(C(=O)NCC(=O)N2CC(C)OC(C)C2)cc1 (stereo not given) | inconclusive: 0.355 µM [inhibitor, full curve, poor fit] |
| O=C(O)c1cc(-c2ccc(Cl)cc2)n(-c2ccc(Cl)cc2)n1 | inconclusive: 6.31 µM [inhibitor, single point] |
| O=C(CNC(=O)c1ccccc1F)N/N=C/c1cc(Br)ccc1OC(=O)/C=C/c1ccco1 | inconclusive: 28.2 µM [inhibitor, partial curve, poor fit] |
| CCOC(=O)C1=C(c2ccccc2)NC(=O)NC1c1cc(Br)c(O)c(OC)c1 (stereo not given) | inconclusive: 20 µM [inhibitor, single point] |
| Cc1cc(-n2nc(C)cc2C)n2nc(C)c(-c3ccc(Cl)cc3)c2n1 | inconclusive: 16.4 µM [inhibitor, single point] |
| Cc1ccc(-c2nc3ccccc3[nH]2)cc1NC(=O)c1sc2cc(Cl)ccc2c1Cl | inactive |
| COc1ccc(OC)c(/C=C/C(=O)OCC(=O)Nc2cccc(C(C)=O)c2)c1 | inconclusive: 3.98 µM [inhibitor, partial curve, poor fit] |
| CC(OC(=O)c1ccc(C#N)cc1)C(=O)Nc1ccc(Cl)cn1 (stereo not given) | inconclusive: 2.51 µM [activator, partial curve, poor fit] |
| CCC(C)N(C)C(=O)c1cc2ccccc2c(-c2ccccc2Cl)n1 (stereo not given) | inconclusive: 6.51 µM [inhibitor, single point] and inconclusive: 35.5 µM [inhibitor, single point] |
| COc1nc(OC)nc(Oc2ccc([N+](=O)[O-])cc2Cl)n1 | inconclusive: 35.5 µM [activator, single point] |
| Cc1cccc(/C(N)=N/OC(=O)Cc2cccc3ccccc23)c1 | inconclusive: 11.2 µM [inhibitor, partial curve, poor fit] |
| CCOC(=O)C1CCN(C(=O)Cn2ncc3c([nH]c4ccccc43)c2=O)CC1 | inactive |
| Cc1ccc(-c2nn(-c3ccccc3)cc2C(=O)NCC(c2cccs2)N2CCOCC2)cc1 (stereo not given) | inconclusive: 17.8 µM [inhibitor, single point] |
| Cc1cc(C)nc(NC(=O)c2ccc([N+](=O)[O-])o2)n1 | inactive |
| CN(c1ccccc1)S(=O)(=O)c1ccc(Cl)c(C(=O)NCCc2c[nH]c3ccccc23)c1 | inconclusive: 5.8 µM [inhibitor, partial curve, poor fit] |
| Nc1nnc(CC(=O)N/N=C/c2cccc(OCCOc3ccccc3)c2)s1 | inconclusive: 2.24 µM [activator, partial curve] |
| C=CCn1c(SCc2nc3scc(-c4ccccc4)c3c(=O)[nH]2)nnc1-c1ccccc1F | inconclusive: 0.206 µM [inhibitor, full curve, poor fit] |
| CC(OC(=O)c1ccccc1OCc1ccc(Cl)cc1)C(N)=O (stereo not given) | inconclusive: 35.5 µM [inhibitor, single point] |
| OC(CNCc1ccc2c(c1)OCO2)COc1ccccc1 (stereo not given) | inconclusive: 6.31 µM [inhibitor, single point] |
| COc1ccc(NC(=O)CN(C)C(=O)c2cc3c(s2)CCC(C)C3)cc1 (stereo not given) | inactive |

| SMILES | Potency |
| --- | --- |
| Cn1c(=O)c2[nH]c(Nc3ccccc3)nc2n(C)c1=O | inconclusive: 7.08 µM [inhibitor, partial curve] |
| COC(=O)C1CCN(Cc2nnc(-c3ccccc3)o2)CC1 | inconclusive: 31.6 µM [activator, single point] |
| NNC(=O)CC1NCCN(Cc2ccccc2)C1=O (stereo not given) | inconclusive: 0.316 µM [inhibitor, partial curve, poor fit] |
| CNC(C)Cc1ccccc1Sc1ccc(O)cc1 (stereo not given) | inconclusive: 17.8 µM [inhibitor, single point] |
| Cc1cc(C)n(CC(O)Cn2ccc3ccccc32)n1 (stereo not given) | inactive |
| Cc1ccc(NC(=O)c2cc(-c3ccco3)nc3ccccc23)cc1S(=O)(=O)N1CCOCC1 | inconclusive: 10 µM [inhibitor, single point] |
| CCOc1cc(/C=N/Nc2nc(-c3cccc(S(=O)(=O)N4CCCC4)c3)cs2)ccc1O | inconclusive: 17.8 µM [inhibitor, partial curve, poor fit] |
| Cc1ncc(CN2CCCC(C(=O)Nc3ccc(-c4cccc(F)c4)cc3)C2)n1C (stereo not given) | inconclusive: 35.5 µM [inhibitor, single point] |
| COc1ccc(Cc2nc3ccc(C(=O)N4CCN(C)C(C)C4)cc3o2)cc1OC (stereo not given) | inconclusive: 1.12 µM [inhibitor, full curve] |
| O/N=C(\c1ccc2c(c1)OCCO2)C1CCCCC1 | inconclusive: 15.8 µM [inhibitor, single point] |
| CCC(Sc1nc(C)cc(C)n1)C(=O)NC1=NN=C(c2ccc(C)cc2)CS1 (stereo not given) | inconclusive: 6.51 µM [inhibitor, single point] |
| CN(C)CCNCCCNc1c2ccccc2nc2cccc([N+](=O)[O-])c12 | inconclusive: 0.112 µM [inhibitor, full curve, poor fit] |
| COC(=O)c1ccccc1NC(=O)C1CCCN(S(=O)(=O)c2ccc(F)cc2)C1 (stereo not given) | inconclusive: 10 µM [inhibitor, single point] |
| C/C(=N/NC(=O)c1ccc(Br)o1)C(C)C | inconclusive: 3.98 µM [activator, full curve, poor fit] |
| CC(OC(=O)CC(C)c1ccccc1)C(=O)Nc1ccc(Cl)cn1 (stereo not given) | inconclusive: 10 µM [inhibitor, partial curve, poor fit] |
| Cc1ccc(-n2nc(C)c(C3(O)C(=O)N(C(C)C)c4ccccc43)c2N)cc1 (stereo not given) | inconclusive: 35.5 µM [activator, single point] |
| Cc1ccc(NC(=O)c2cc(=O)c3ccccc3o2)cc1S(=O)(=O)N1CCCCC1 | inactive |
| COc1cc(SC)ccc1C(=O)Nc1ccc(OCC(=O)N2CCOCC2)cc1 | inconclusive: 11.2 µM [inhibitor, partial curve] |
| COc1ccc(N(CC(=O)N/N=C/c2ccc(N(C)C)cc2)S(=O)(=O)c2ccccc2)cc1 | inconclusive: 10 µM [inhibitor, partial curve, poor fit] |
| Cc1ccc(NC(=O)C(C)N2CCc3ccccc3C2)cc1 (stereo not given) | inconclusive: 35.5 µM [inhibitor, single point] |
| O=C1C2C3C=CC(C3=C(c3ccccc3)c3ccccc3)C2C(=O)N1Cc1ccccc1 (stereo not given) | inconclusive: 35.5 µM [inhibitor, single point] |
| COc1ccc(-c2csc(NC3OC(=O)c4c3ccc(OC)c4OC)n2)cc1OC (stereo not given) | inconclusive: 17.8 µM [inhibitor, single point] |

| SMILES | Potency |
| --- | --- |
| Cc1nc(NC(=O)c2cccs2)ccc1Br | inconclusive: 11.2 µM [inhibitor, single point] |
| CCOC(=O)Cn1c(=O)c(F)cn(Cc2ccc(OC)c([N+](=O)[O-])c2)c1=O | inconclusive: 1.12 µM [inhibitor, single point] |
| NS(=O)(=O)c1ccc(NC(=S)Nc2ccn(Cc3cccc4ccccc34)n2)cc1 | active: 6.31 µM |
| COc1ccc(NCC(=O)N/N=C/C=C\c2ccccc2)cc1 | inactive |
| COc1ccc(C(=O)Nc2ccc3c(c2)nc(CCNC(=O)c2ccco2)n3C)cc1 | inconclusive: 1.26 µM [activator, full curve, poor fit] |
| CC1(C(=O)Nc2ccccc2)Cc2ccccc2C(=O)O1 (stereo not given) | inactive |
| Cc1nn(C(=O)c2cccc([N+](=O)[O-])c2)c(C)c1Cl | inactive |
| CCC(=O)Nc1cc2c(cc1C(C)=O)OCCO2 | inactive |
| Cc1cc(C)cc(OCC(=O)NNC(=S)NC(=O)C2CC2)c1 | inconclusive: 35.5 µM [inhibitor, single point] |
| Clc1ccc(CN2C3=NCCCN3c3ccccc32)cc1 | inconclusive: 12.6 µM [inhibitor, partial curve, poor fit] |
| O=C(N/N=C/c1ccncc1)c1ccc(NC(=O)c2ccc(Cl)cc2)cc1 | inconclusive: 6.31 µM [activator, single point] |
| COc1cc2c(cc1C(F)(F)F)N(C(=O)Nc1cc(F)cc(-c3cccnc3)c1)CC2 | active: 1.26 µM |
| CCN(c1ccc(OC)cc1)S(=O)(=O)N1CCCC(C(=O)NCc2ccccc2Br)C1 (stereo not given) | inactive |
| COc1ccccc1N(CC(O)COc1ccc(C)cc1)S(=O)(=O)c1ccccc1 (stereo not given) | inconclusive: 35.5 µM [inhibitor, single point] |
| c1ccc(-c2csc(NC3=NCCCCC3)n2)cc1 | inconclusive: 5.62 µM [activator, single point] |
| CN(C)CCOc1ccc(C(C)(C)c2ccccc2)cc1 | inconclusive: 35.5 µM [inhibitor, single point] |
| CCOc1ccc2[nH]c(=O)c(CN(Cc3ccc(F)cc3)C(=O)N3CCCC3)cc2c1 | inactive |
| CCOC(=O)c1c(C)n(C)c2cc(Br)c(C(=O)OC)cc12 | inconclusive: 5.62 µM [inhibitor, single point] |
| CC(C)(C)OC(=O)N/N=C/c1cccn1-c1ccc([N+](=O)[O-])cc1 | inactive |
| O=C(NCc1cccnc1)NC1CCCCC1 | inconclusive: 2.31 µM [activator, full curve, poor fit] |
| Cc1ncc(CN2CCCC(C(=O)Nc3ccc(-c4ccco4)cc3)C2)n1C (stereo not given) | inconclusive: 35.5 µM [inhibitor, single point] |

— PubChem BioAssay AID540276 (National Center for Advancing Translational Sciences (NCATS), 2011)
